Values of other authors as cited in US12264339B2, “Compositions and methods involving engineered P27” (THE REGENTS OF THE UNIVERSITY OF CALIFORNIA, priority 2018, dated 2025).
At least one compound was matched to its structure with a doubt left.

How the values were obtained:
MCF7 cells = conditions: Rb-positive breast cancer cells; stated as description of the cells; cited from earlier work
T98G cells = conditions: glioma cells; stated as description of the cells; cited from earlier work
MDA-MB-231 cells = conditions: Rb-positive breast cancer cells; stated as description of the cells; cited from earlier work

For `CC(=O)c1c(C)c2cnc(Nc3ccc(N4CCNCC4)cn3)nc2n(C2CCCC2)c1=O` [palbociclib], the “sensitivity of cells to palbociclib” value (MCF7 cells) is listed as “palbociclib-sensitive”, the “sensitivity of cells to palbociclib” value (T98G cells) is listed as “relatively less sensitive” and the “sensitivity of cells to palbociclib” value (MDA-MB-231 cells) is listed as “palbociclib-sensitive”.
